Assay results published in article PMC7565527, “Cryo-EM Structure of Heterologous Protein Complex Loaded Thermotoga Maritima Encapsulin Capsid” (Biomolecules, 2020).
These are yes or no findings as the source states them, for the method shown. Some binding calls cover weakened binding; strength is not graded here. Tags and fused reporters may be left off the sequences shown.

T1: His-GFP-IDM1 (His-sfGFP fused at the N-terminus of IDM1) (Arabidopsis thaliana) (UniProt F4IXE7)
T1 sequence: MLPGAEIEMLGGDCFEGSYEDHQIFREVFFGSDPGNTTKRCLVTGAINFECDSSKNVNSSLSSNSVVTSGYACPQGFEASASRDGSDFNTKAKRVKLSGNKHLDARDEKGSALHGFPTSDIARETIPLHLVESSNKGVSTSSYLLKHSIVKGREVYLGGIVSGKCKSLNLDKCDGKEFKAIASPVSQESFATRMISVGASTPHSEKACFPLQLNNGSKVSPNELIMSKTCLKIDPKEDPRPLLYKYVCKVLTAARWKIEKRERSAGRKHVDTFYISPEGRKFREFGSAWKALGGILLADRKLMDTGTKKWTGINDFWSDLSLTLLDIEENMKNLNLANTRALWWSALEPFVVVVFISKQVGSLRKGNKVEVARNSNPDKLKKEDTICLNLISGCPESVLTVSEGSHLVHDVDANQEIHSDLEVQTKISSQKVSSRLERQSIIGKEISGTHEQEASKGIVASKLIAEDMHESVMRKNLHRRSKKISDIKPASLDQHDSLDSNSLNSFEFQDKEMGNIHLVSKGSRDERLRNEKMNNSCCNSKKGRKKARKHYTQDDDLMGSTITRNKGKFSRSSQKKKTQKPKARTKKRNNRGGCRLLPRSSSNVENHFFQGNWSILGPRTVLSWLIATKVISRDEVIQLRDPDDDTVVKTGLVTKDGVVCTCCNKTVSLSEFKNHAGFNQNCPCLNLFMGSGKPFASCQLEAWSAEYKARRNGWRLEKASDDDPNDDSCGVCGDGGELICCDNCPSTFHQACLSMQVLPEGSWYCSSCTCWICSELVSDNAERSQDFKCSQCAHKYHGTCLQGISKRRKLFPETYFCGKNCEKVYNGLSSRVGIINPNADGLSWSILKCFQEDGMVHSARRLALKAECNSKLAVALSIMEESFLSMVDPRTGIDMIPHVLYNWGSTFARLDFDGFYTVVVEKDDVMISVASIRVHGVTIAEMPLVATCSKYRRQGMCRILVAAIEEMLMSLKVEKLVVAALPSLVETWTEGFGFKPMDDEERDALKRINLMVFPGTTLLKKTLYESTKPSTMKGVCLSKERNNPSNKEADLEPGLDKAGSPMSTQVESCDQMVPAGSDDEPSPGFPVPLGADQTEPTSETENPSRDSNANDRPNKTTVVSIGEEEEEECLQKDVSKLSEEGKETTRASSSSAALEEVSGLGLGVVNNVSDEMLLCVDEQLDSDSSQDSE

B1: IDM3 (protein, UniProt Q9SYQ0 1-463)
chain: MSLYSDGLSSDQYFLVNFIMSNYLGPDVYSDNPRCSSSQRLARGLPPYTLMHIGSSSLTVSQLQNLYYNVLRNAKSSLLLHPDMIYMYLKGYLPLEPSGKFPQFTHFFPTNLHPQKRYSPSHEIVKGIVVIDDPAVGFINKEELQRFRCLSRLDDLKIDRVTSLSPRVNLDESRETEQDCSRNGDATANGVVTNEDYNSSGELQETCKRKEGEDAVASCVISEPERLSGDIPESQGMKQDCSRNGESAFSGIVSDQDYYSFVKLPETCKRKNKEEEAVTGHAVSGTSKTPERFRETYKRRRFKNSSKKATNKNGETLMEREKTDKPIPFSSEMKESDAEPSVVTTGTASKETLGSSVGVVDIGVNKVAYFFQVALPGVRKDYGEFSCEIESDGKVILEGSTTRGEKNIKRHSRVFEMNIRKLCPPGPFKLCFNLPGPVDPRLFSPNFRSDGIFEGVIIRHKNS
B2: MBD7, truncated version from Ser232 to the end of the C-terminus, with MBP at the N-terminus (domain or fragment, UniProt Q9FJF4 232-306)
chain: SVSMVHSERLPLLMNRNGIRFQSEVIDPNPPKKVKWVLTGSGGNMFTANVRGSNVSSLVKHTWSEAFVSLIEDRS
B3: IDM2 (protein, UniProt Q8RWL4 1-349)
chain: MSDTMPEIVSPLVAENSQEQEESVLISLDIEEDKLFLLHFIIGTYFGPDLRKQHHRPKQSAFQIQALKNVVVDELSGSLMKRAELERVYYHIIRNVDPSLVMKPKKLREYFNAKRNDSNRDYPLFVDLFPRKLHPETHVRHKFKFIRSIVFINDPDTSCMREECVARFKRLTGLDSFALSLSVDVTKSNGVVAANEVKVEIDESVEPVKEDNAGTCTSGEESDVAAKPEVKSEAHGGLMVGLMDIGECDDAYLFRVSLPGVKRDERYFSCEVEDNGKVLVRGVTTTGGKRVKRYSHVFEMQTRSLCPPGNFSVSFRLPGPVHPHEFSGNFGTDGILEGVVMKNLQKQTV

Molecular target: T1, His-GFP-IDM1 (His-sfGFP fused at the N-terminus of IDM1) (Arabidopsis thaliana)
Assay: co-purification (His-tag affinity, SDS-PAGE); IDM complex without encapsulin, coexpressed in insect cells, purified with the His-tag on the N-terminus of IDM1 (His-sfGFP-IDM1 as bait)

Binder	binding
B1	binds
B2	binds
B3	binds
